No constants are given. Whether binding was seen depends on the method and setting. Some results given as binding are weak or reduced against the parent protein; the word gives no strength.

Chains of the proteins cited; added tags and fusions are not shown.
UniProt P18852: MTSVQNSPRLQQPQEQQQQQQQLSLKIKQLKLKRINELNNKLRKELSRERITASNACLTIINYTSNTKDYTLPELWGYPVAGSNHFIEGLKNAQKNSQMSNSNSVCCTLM

In this assay the target is Ste18p (two-hybrid system) (Saccharomyces cerevisiae (yeast)) (UniProt P18852). Description: yeast two-hybrid system.

B1: Ste4p^D62N mutant (two-hybrid system) (protein, Saccharomyces cerevisiae (yeast), UniProt P18851 1-423, looked up)
chain: MAAHQMDSITYSNNVTQQYIQPQSLQDISAVEDEIQNKIEAARQESKQLHAQINKAKHKIQNASLFQMANKVTSLTKNKINLKPNIVLKGHNNKISDFRWSRDSKRILSASQDGFMLIWDSASGLKQNAIPLDSQWVLSCAISPSSTLVASAGLNNNCTIYRVSKENRVAQNVASIFKGHTCYISDIEFTDNAHILTASGDMTCALWDIPKAKRVREYSDHLGDVLALAIPEEPNSENSSNTFASCGSDGYTYIWDSRSPSAVQSFYVNDSDINALRFFKDGMSIVAGSDNGAINMYDLRSDCSIATFSLFRGYEERTPTPTYMAANMEYNTAQSPQTLKSTSSSYLDNQGVVSLDFSASGRLMYSCYTDIGCVVWDVLKGEIVGKLEGHGGRVTGVRSSPDGLAVCTGSWDSTMKIWSPGYQ
Turning to B1, the binding entry was “binds”.
